The values that follow come from PubChem BioAssay AID1487 (National Center for Advancing Translational Sciences (NCATS), 2009).

The list shows a part of the results. These are further read-outs of the screen, such as a control signal, another cell line or another target. No call is given for them. Compounds called inactive in the main read-out are mostly missing here. Potencies come from curve fits of mixed quality, noted in brackets.

This assay can be described thus: qHTS Assay for Modulators of Lamin A Splicing. Conditions: HeLa LMNA splicing GFP/RFP minigene ratio, 48 h. The gist of the method: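 S3 HeLa cells stably expressing lamin A-EGFP splicing minigene plus DsRed2, 600 cells/well, 48 h compound exposure at 37C. Laser-scanning cytometry; analysed as GFP (500-530 nm)/RFP (575-640 nm) total intensity ratio; 0.5% DMSO vehicle.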
Background: Quantitative high-throughput screening tests each substance at several concentrations.

The mark [1] stands for this setting: measured here: GFP splicing reporter channel.
[2] abbreviates: measured here: RFP viability control channel.

What is called AC50 is the concentration at which the activity in the assay is half-maximal. As to `COc1cccc(NC(=O)C2CCC(CNS(=O)(=O)c3cccs3)CC2)c1` (stereo not given), under setting [1], the AC50 is 0.708 µM [rising, single point].

For `CCN(CC)c1ccc([C@H]2[C@@H]3CCCC[C@]3(O)CCN2CC(=O)NCc2ccco2)cc1`, the AC50 under setting [2] was 2.24 µM [falling, partial curve, poor fit].

On to `CCn1c2ccccc2c2cc(/C=N/n3cnnc3)ccc21`, for which the AC50 under setting [2] was 15.8 µM [rising, partial curve, poor fit].

Take `Cc1ccc(NC(=S)N(CCN(C)C)Cc2cccs2)cc1`: the AC50 reads like this: under setting [1], 1.26 µM [falling, full curve]; under setting [2], 0.316 µM [falling, partial curve].

Turning to `O=C(NCc1cccs1)c1ccc(Cn2c(SCc3cccc(F)c3)nc3cccnc32)cc1`, the AC50 under setting [1] was 35.5 µM [falling, partial curve, poor fit].

`CC[C@@H](C)[C@H](NC(=O)OC(C)(C)C)c1nnc(S(=O)(=O)Cc2cc(C)ccc2C)o1`: the AC50 under setting [2] was 22.4 µM [rising, partial curve].

Regarding `O=C(/C=C/c1cccc(Br)c1)N1CCN(c2cccc(C(F)(F)F)c2)CC1`, the AC50 runs as follows: under setting [1], 35.5 µM [rising, single point]; under setting [2], 31.6 µM [rising, single point].

For the compound `COC(=O)[C@@]1(Cc2ccc(F)cc2)[C@H]2c3cc(C(=O)N(C)C)n(Cc4ccccc4)c3C[C@H]2CN1C(=O)c1ccccc1`, the AC50 is 10 µM [rising, partial curve] under setting [1] and 20 µM [rising, single point] under setting [2].

For the compound `CCOC(=O)c1c(NC(=O)c2cc3nc(-c4ccc(OC)cc4)cc(C(F)(F)F)n3n2)sc2c1CCC(C)C2` (stereo not given), under setting [2], the AC50 was 0.447 µM [falling, full curve, poor fit].

On to `COc1cc(C2C=C(c3cccs3)Nc3ncnn32)cc(OC)c1OC` (stereo not given), for which, under setting [2], the AC50 is 1.12 µM [rising, full curve].

As to `O=S(=O)(NC1CCCCC1)c1cccc(-c2nnc(-c3ccccc3)o2)c1`, the AC50 under setting [2] is 35.5 µM [rising, single point].

Regarding `CCN1C(=S)SC(=O)C1=C1C=C(C)N(CCOC)C(C)=C1`, the AC50 under setting [2] is 10 µM [rising, partial curve, poor fit].

With `c1nc(NC2CCCCC2)c2[nH]cnc2n1`, the AC50 under setting [2] was 35.5 µM [rising, single point].

`Cc1ccc(NC(=O)C(=O)NNC(=O)c2ccccc2C)cc1Cl`: under setting [2], the AC50 was 12.6 µM [falling, single point].

For `Cc1ccc(N(C)S(=O)(=O)c2cccc(C(=O)Nc3nc4ccccc4[nH]3)c2)cc1`, under setting [2], the AC50 is 35.5 µM [rising, partial curve, poor fit].

On to `Cc1cccc(NC(=O)c2sc(-n3nc(C)c(Cc4ccc5c(c4)OCO5)c3C)nc2C)c1C`, for which the AC50 was 5.62 µM [rising, single point] under setting [1] and 5.62 µM [rising, single point] under setting [2].

Consider `O=C(/C=C\c1cn(-c2ccccc2)nc1-c1ccc2c(c1)OCCO2)N1CCOCC1`, for which the AC50 under setting [1] was 0.02 µM [falling, full curve, poor fit].

In the case of `COCc1cc(C)n(CC(=O)N/N=C/c2ccc(-c3ccc(Cl)c(C(=O)O)c3)o2)c(=O)c1C#N`, the AC50 under setting [1] was 0.631 µM [rising, full curve, poor fit].

As for `CCN(CC)CCNC(=S)Nc1ccc2nc3n(c(=O)c2c1)CCCCC3`, the AC50 under setting [2] was 0.00316 µM [falling, full curve, poor fit].

As for `C=CCn1nc([N+](=O)[O-])nc1Sc1cccc2cccnc12`, the AC50 runs as follows: under setting [1], 5.01 µM [rising, partial curve]; under setting [2], 11.2 µM [rising, partial curve].

Regarding `COC(=O)c1c(NC(=O)C2C3CCC(O3)C2C(=O)O)sc2c1CCCCCC2` (stereo not given), the AC50 under setting [2] was 12.6 µM [rising, partial curve].

`COc1ccc2[nH]cc(CCNc3ncncc3-c3ccccc3Cl)c2c1`: the AC50 by setting is: under setting [1], 12.6 µM [falling, partial curve]; under setting [2], 35.5 µM [falling, single point].

Take `O=C(c1ccco1)N1CCN(C(=O)C2CC2)CC1`: the AC50 under setting [2] was 0.01 µM [falling, full curve, poor fit].

`Cn1c(COc2ccc3ccccc3c2)nnc1SCC(=O)O`: the AC50 under setting [1] was 0.2 µM [rising, single point].

With `CN(C)c1ccc(Nc2c3c4c(cccc4n(C)c2=O)C(=O)c2ccccc2-3)cc1`, the AC50 under setting [1] was 0.0316 µM [falling, full curve, poor fit] and the AC50 under setting [2] was 4.47 µM [rising, partial curve].

As for `Clc1ccc(CCNc2nc3ccccc3s2)cc1`, the AC50 under setting [1] was 12.6 µM [falling, partial curve].

As for `CCOC(=O)NC(=O)CSc1nc2ccc(C)cc2[nH]1`, the AC50 under setting [1] was 35.5 µM [rising, single point].

For `O=C(NCc1ccco1)c1nc2c(nnn2Cc2ccccc2Cl)c(=O)[nH]1`, the AC50 under setting [2] was 2.82 µM [rising, partial curve].

With `CCOC(=O)Nc1ccc2c(c1)N(C(=O)CCN(C)C)c1ccccc1S2`, the AC50 by setting is: under setting [1], 17.8 µM [falling, partial curve]; under setting [2], 25.1 µM [falling, single point].

Turning to `Cn1cc(-c2ccccc2)cc(C#N)c1=O`, under setting [1], the AC50 was 0.158 µM [rising, partial curve, poor fit].

On to `CN1C(=O)C(Cl)(Cl)C(=O)c2ccccc21`, for which the concentration at half-maximal activity (AC50) under setting [1] is 35.5 µM [rising, single point] and the AC50 under setting [2] is 35.5 µM [rising, single point].

In the case of `O=C(COC(=O)c1ccc([N+](=O)[O-])o1)c1ccccc1`, the AC50 is 0.00708 µM [falling, full curve, poor fit] under setting [1] and 0.0398 µM [falling, full curve, poor fit] under setting [2].

For `CCCc1cc(C(=O)NNC(=S)NCc2ccccc2)cs1`, the AC50 was 12.6 µM [rising, single point] under setting [1] and 35.5 µM [rising, single point] under setting [2].

On to `O=C(/C=C/c1ccccc1F)c1cccc([N+](=O)[O-])c1`, for which the AC50 under setting [1] is 3.98 µM [rising, full curve] and the AC50 under setting [2] is 11.2 µM [rising, partial curve].

Regarding `COc1cc(NC(=O)COc2ccc(Cl)cc2)ccc1-c1cc2ccccc2oc1=O`, under setting [2], the AC50 was 14.1 µM [rising, single point].

In the case of `Oc1ccc(N=Nc2c(O)ccc3ccccc23)cc1`, the AC50 under setting [2] was 0.891 µM [rising, single point].

Turning to `CCC(C)N(C)Cc1cccc(C2(O)CCN(S(=O)(=O)c3ccc(F)c(C)c3)CC2)c1` (stereo not given), the concentration at half-maximal activity (AC50) under setting [2] was 31.6 µM [rising, single point].

As to `CCOC(=O)C(C)(C)N(Cc1ccc(C)cc1)S(=O)(=O)c1ccc(Cl)c([N+](=O)[O-])c1`, the AC50 under setting [2] was 35.5 µM [rising, single point].

Take `CCOC(=O)c1c(NC(=O)Cn2nc(C(F)(F)F)cc2C)sc2c1CCC2`: the AC50 under setting [2] was 17.8 µM [rising, single point].

For the compound `COc1ccc(S(=O)(=O)NCCSC(C)(C)C)cc1Cl`, the AC50 under setting [2] is 15.8 µM [rising, single point].

Take `CC(C)C[C@H](N)CSSC[C@@H](N)CC(C)C`: the AC50 is 14.1 µM [falling, partial curve, poor fit] under setting [1] and 17.8 µM [falling, partial curve] under setting [2].

In the case of `O=c1cnnc(SCc2ccc([N+](=O)[O-])cc2)[nH]1`, the AC50 under setting [1] is 0.631 µM [rising, single point].

For the compound `Oc1ccc(/C=N/N2CCN(C3c4ccccc4-c4ccccc43)CC2)c(O)c1`, the AC50 under setting [1] was 12.6 µM [falling, partial curve] and the AC50 under setting [2] was 12.6 µM [falling, partial curve].

As to `CCOC(=O)c1[nH]nc2c1C(=O)N(Cc1ccccc1)C2=O`, under setting [1], the AC50 was 12.6 µM [rising, single point].

`CCOC(=O)c1sc(/N=C/c2c(O)ccc3ccccc23)cc1C`: the AC50 under setting [2] is 35.5 µM [rising, single point].

Turning to `O=S(=O)(NC1CC1)c1ccc(S(=O)(=O)N2CCCc3ccccc32)cc1`, the AC50 under setting [2] is 14.1 µM [rising, partial curve].

Regarding `C=Cn1ccnc1P(=S)(c1ccc2c(c1)c1ccccc1n2CC)c1nccn1C=C`, the AC50 under setting [2] was 10 µM [rising, partial curve].

For `COc1ccc2[nH]cc(CCNc3ncncc3-c3ccccc3C(F)(F)F)c2c1`, the AC50 under setting [1] is 10 µM [falling, partial curve, poor fit].

Consider `Cc1ccc(/C=C/S(=O)(=O)NCC(=O)O)cc1`, for which the AC50 under setting [2] was 3.98 µM [rising, full curve, poor fit].

As to `CCOC(=O)c1c(C)[nH]c(C)c1C(=O)CSc1nnc(-c2ccc(OC(F)F)cc2)o1`, the AC50 under setting [1] is 12.6 µM [falling, partial curve] and the AC50 under setting [2] is 12.6 µM [falling, partial curve].

`COc1cc(-c2cccs2)cc(=O)c2c(C)oc(C)c12`: the AC50 was 17.8 µM [rising, partial curve, poor fit] under setting [1] and 12.6 µM [rising, partial curve] under setting [2].

On to `CCOC(=O)c1c(NC(=O)CSc2ncccn2)sc2c1CCN(Cc1ccccc1)C2`, for which the AC50 runs as follows: under setting [1], 14.1 µM [rising, partial curve, poor fit]; under setting [2], 25.1 µM [rising, single point].

In the case of `CC(=O)N1CCCc2cc(S(=O)(=O)N3CCC(C)CC3)ccc21`, the AC50 is, setting by setting: under setting [1], 8.91 µM [rising, partial curve, poor fit]; under setting [2], 11.2 µM [rising, partial curve].

Regarding `COc1ccc(N/N=C(\C=N\O)C(=O)c2ccc(OC)cc2)cc1`, the AC50 under setting [1] is 7.94 µM [falling, partial curve, poor fit] and the AC50 under setting [2] is 11.2 µM [falling, partial curve].

Consider `CCN(CC)c1ccc2cc(-c3nc(-c4ccc(OC)cc4)cs3)c(=O)oc2c1`, for which the AC50 runs as follows: under setting [1], 1.58 µM [falling, full curve]; under setting [2], 1.12 µM [falling, full curve].
